The target of assay [1] is T1, native human complement factor H (CFH), commercial, purified from pooled serum (human), P08603.
T1 chain: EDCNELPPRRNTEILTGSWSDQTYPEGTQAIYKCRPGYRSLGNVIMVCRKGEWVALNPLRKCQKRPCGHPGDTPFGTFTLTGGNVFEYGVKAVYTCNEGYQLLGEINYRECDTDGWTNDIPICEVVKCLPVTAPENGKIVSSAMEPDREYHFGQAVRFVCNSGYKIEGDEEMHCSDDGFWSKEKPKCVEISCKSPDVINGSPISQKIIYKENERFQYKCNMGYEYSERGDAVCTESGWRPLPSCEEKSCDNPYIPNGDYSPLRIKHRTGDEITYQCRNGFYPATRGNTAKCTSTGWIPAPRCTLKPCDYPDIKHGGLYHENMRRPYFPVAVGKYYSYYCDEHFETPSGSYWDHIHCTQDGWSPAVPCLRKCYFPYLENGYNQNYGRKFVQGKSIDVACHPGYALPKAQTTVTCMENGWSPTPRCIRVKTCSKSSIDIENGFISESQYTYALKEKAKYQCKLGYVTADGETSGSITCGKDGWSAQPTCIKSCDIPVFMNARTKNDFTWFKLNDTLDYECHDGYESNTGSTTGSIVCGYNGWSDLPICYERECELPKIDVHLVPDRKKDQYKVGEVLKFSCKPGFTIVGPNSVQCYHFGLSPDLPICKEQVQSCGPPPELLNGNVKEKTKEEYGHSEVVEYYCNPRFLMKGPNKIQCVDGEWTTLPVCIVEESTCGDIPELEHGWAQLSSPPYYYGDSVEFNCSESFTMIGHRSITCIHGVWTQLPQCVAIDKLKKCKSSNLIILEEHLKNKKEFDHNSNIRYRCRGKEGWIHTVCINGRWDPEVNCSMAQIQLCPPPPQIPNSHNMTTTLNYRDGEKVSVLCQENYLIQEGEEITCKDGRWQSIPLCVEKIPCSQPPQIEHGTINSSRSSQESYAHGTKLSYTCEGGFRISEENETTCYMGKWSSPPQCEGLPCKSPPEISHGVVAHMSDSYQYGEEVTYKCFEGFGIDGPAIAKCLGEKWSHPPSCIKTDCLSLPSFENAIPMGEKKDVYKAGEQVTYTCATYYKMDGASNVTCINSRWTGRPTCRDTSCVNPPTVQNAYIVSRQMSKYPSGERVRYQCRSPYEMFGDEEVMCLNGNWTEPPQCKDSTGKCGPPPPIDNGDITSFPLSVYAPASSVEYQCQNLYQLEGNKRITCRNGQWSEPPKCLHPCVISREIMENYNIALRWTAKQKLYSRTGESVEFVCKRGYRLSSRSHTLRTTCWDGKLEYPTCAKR
In words: co-IP; day 7 serum-free ARPE-19 conditioned medium with or without 2 µg added human CFH; IP with biotinylated anti-CFH antibody and streptavidin magnetic beads; Western blot with rabbit anti-Fib3; only the target purified. The conditions noted are these: remark: other sources report otherwise. For orientation: Immunoblotting shows a protein as a band on a membrane.

Assay [2] addresses T2, native human Fib3 secreted by serum-starved ARPE-19 cells (human (endogenous in ARPE-19)), Q12805.
T2 chain: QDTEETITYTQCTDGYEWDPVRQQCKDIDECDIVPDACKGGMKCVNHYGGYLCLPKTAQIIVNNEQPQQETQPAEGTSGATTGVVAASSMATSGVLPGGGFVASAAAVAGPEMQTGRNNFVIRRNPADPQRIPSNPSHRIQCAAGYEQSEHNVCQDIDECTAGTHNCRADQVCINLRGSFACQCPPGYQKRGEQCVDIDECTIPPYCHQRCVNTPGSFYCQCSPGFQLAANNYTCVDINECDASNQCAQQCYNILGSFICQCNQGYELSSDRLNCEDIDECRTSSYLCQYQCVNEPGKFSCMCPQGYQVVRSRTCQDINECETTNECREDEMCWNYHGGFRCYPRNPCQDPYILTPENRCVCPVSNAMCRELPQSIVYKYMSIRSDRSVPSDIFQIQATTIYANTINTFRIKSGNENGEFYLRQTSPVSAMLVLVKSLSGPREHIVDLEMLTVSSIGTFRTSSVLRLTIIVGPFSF
In words: co-IP; serum-free conditioned medium of ARPE-19 (or HEK293) cells with 0, 2 or 5 µg/ml added purified human CFH; IP with biotinylated anti-Fib3 antibody and streptavidin magnetic beads, overnight at 4°C; Western blot with anti-CFH; only the binder purified. The conditions noted are these: remark: other sources report otherwise.

Results are given in words; binding and its absence hold for the method and conditions named. Binding seen in cells or lysates may run through a third protein. Some entries that bind do so weakly or less than the wild type.

B1: native human Fib3 secreted by serum-starved ARPE-19 cells, Q12805 18-493 (protein)
chain: QDTEETITYTQCTDGYEWDPVRQQCKDIDECDIVPDACKGGMKCVNHYGGYLCLPKTAQIIVNNEQPQQETQPAEGTSGATTGVVAASSMATSGVLPGGGFVASAAAVAGPEMQTGRNNFVIRRNPADPQRIPSNPSHRIQCAAGYEQSEHNVCQDIDECTAGTHNCRADQVCINLRGSFACQCPPGYQKRGEQCVDIDECTIPPYCHQRCVNTPGSFYCQCSPGFQLAANNYTCVDINECDASNQCAQQCYNILGSFICQCNQGYELSSDRLNCEDIDECRTSSYLCQYQCVNEPGKFSCMCPQGYQVVRSRTCQDINECETTNECREDEMCWNYHGGFRCYPRNPCQDPYILTPENRCVCPVSNAMCRELPQSIVYKYMSIRSDRSVPSDIFQIQATTIYANTINTFRIKSGNENGEFYLRQTSPVSAMLVLVKSLSGPREHIVDLEMLTVSSIGTFRTSSVLRLTIIVGPFSF
As for B1, in assay [1], the binding entry is “binds”.

B2: native human complement factor H (CFH), commercial, purified from pooled serum, P08603 19-1231 (protein)
chain: EDCNELPPRRNTEILTGSWSDQTYPEGTQAIYKCRPGYRSLGNVIMVCRKGEWVALNPLRKCQKRPCGHPGDTPFGTFTLTGGNVFEYGVKAVYTCNEGYQLLGEINYRECDTDGWTNDIPICEVVKCLPVTAPENGKIVSSAMEPDREYHFGQAVRFVCNSGYKIEGDEEMHCSDDGFWSKEKPKCVEISCKSPDVINGSPISQKIIYKENERFQYKCNMGYEYSERGDAVCTESGWRPLPSCEEKSCDNPYIPNGDYSPLRIKHRTGDEITYQCRNGFYPATRGNTAKCTSTGWIPAPRCTLKPCDYPDIKHGGLYHENMRRPYFPVAVGKYYSYYCDEHFETPSGSYWDHIHCTQDGWSPAVPCLRKCYFPYLENGYNQNYGRKFVQGKSIDVACHPGYALPKAQTTVTCMENGWSPTPRCIRVKTCSKSSIDIENGFISESQYTYALKEKAKYQCKLGYVTADGETSGSITCGKDGWSAQPTCIKSCDIPVFMNARTKNDFTWFKLNDTLDYECHDGYESNTGSTTGSIVCGYNGWSDLPICYERECELPKIDVHLVPDRKKDQYKVGEVLKFSCKPGFTIVGPNSVQCYHFGLSPDLPICKEQVQSCGPPPELLNGNVKEKTKEEYGHSEVVEYYCNPRFLMKGPNKIQCVDGEWTTLPVCIVEESTCGDIPELEHGWAQLSSPPYYYGDSVEFNCSESFTMIGHRSITCIHGVWTQLPQCVAIDKLKKCKSSNLIILEEHLKNKKEFDHNSNIRYRCRGKEGWIHTVCINGRWDPEVNCSMAQIQLCPPPPQIPNSHNMTTTLNYRDGEKVSVLCQENYLIQEGEEITCKDGRWQSIPLCVEKIPCSQPPQIEHGTINSSRSSQESYAHGTKLSYTCEGGFRISEENETTCYMGKWSSPPQCEGLPCKSPPEISHGVVAHMSDSYQYGEEVTYKCFEGFGIDGPAIAKCLGEKWSHPPSCIKTDCLSLPSFENAIPMGEKKDVYKAGEQVTYTCATYYKMDGASNVTCINSRWTGRPTCRDTSCVNPPTVQNAYIVSRQMSKYPSGERVRYQCRSPYEMFGDEEVMCLNGNWTEPPQCKDSTGKCGPPPPIDNGDITSFPLSVYAPASSVEYQCQNLYQLEGNKRITCRNGQWSEPPKCLHPCVISREIMENYNIALRWTAKQKLYSRTGESVEFVCKRGYRLSSRSHTLRTTCWDGKLEYPTCAKR
For the molecule B2, the binding entry in assay [2] is reported as “binds”.
